In patent US7960415B2, “Caspase inhibitors and uses thereof” (Vertex Pharmaceutical Incoporated, priority 2003, dated 2011):
Some of these results come from one statement about several compounds together.

Protein sequences, listed by entry. Tags and fused reporters are not part of them. Residues count along the entry.
UniProt Q14790, 385-479 limits assumed: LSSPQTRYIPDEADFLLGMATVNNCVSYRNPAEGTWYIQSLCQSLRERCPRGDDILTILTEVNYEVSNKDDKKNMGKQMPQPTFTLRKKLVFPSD
UniProt Q14790, 217-374 limits assumed: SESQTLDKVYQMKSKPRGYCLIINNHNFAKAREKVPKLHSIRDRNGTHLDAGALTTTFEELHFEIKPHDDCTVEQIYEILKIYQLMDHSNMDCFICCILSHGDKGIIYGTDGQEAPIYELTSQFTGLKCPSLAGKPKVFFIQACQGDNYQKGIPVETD

Assays:
Assay type in all cases: biochemical
[1] = target: T1, recombinant, purified human Caspase-1 (Homo sapiens, UniProt P29466); assay: Caspase enzyme assay, fluorogenic substrate cleavage (Caspase-1); details: substrate Acetyl-Tyr-Val-Ala-Asp-amino-4-methylcoumarin
T1 sequence (P29466 120-297 limits assumed): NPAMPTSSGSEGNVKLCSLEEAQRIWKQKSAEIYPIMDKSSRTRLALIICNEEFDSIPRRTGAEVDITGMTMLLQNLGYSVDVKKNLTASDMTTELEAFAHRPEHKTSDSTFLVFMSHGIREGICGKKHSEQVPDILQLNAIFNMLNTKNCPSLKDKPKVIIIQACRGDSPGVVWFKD
T1 sequence (P29466 317-404 limits assumed): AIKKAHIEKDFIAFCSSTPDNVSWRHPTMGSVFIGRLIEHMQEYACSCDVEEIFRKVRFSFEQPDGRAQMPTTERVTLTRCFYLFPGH

[2] = target: T2, recombinant, purified human Caspase-3 (Homo sapiens, UniProt P42574); assay: Caspase enzyme assay, fluorogenic substrate cleavage (Caspase-3); details: substrate Acetyl-Asp-Glu-Val-Asp-amino-4-methylcoumarin
T2 sequence (P42574 29-175 limits assumed): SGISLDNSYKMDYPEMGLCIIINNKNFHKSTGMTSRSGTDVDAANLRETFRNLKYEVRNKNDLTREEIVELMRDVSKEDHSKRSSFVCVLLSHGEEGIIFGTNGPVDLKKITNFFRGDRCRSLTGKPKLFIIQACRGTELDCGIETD
T2 sequence (P42574 176-277 limits assumed): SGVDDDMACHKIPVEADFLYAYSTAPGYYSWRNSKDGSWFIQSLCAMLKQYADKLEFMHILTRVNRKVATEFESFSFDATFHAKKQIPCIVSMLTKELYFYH

[3] = target: recombinant, purified human Caspase-8 (Homo sapiens, UniProt Q14790); assay: Caspase enzyme assay, fluorogenic substrate cleavage (Caspase-8); details: substrate Acetyl-Asp-Glu-Val-Asp-amino-4-methylcoumarin

Compound	kinact, second order rate constant of caspase-1 inactivation [1]	kinact, second order rate constant of caspase-3 inactivation [2]	kinact, second order rate constant of caspase-8 inactivation [3]
CC[C@@H](C(=O)NC(CC(=O)O)C(=O)CF)n1cccc(NC(=O)c2ccccn2)c1=O (stereo partly drawn) [Compound 32, (S)-5-Fluoro-4-oxo-3-(2-{2-oxo-3-[(pyridine-2-carbonyl)-amino]-2H-pyridin-1-yl}-butyrylamino)-pentanoic acid]	> 200,000 M^−1s^−1	> 50,000 M^−1s^−1	> 50,000 M^−1s^−1
CCC(=O)Nc1cccn([C@@H](C)C(=O)NC(CC(=O)O)C(=O)CF)c1=O (stereo partly drawn) [Compound 25, (S)-5-Fluoro-4-oxo-3-[2-(2-oxo-3-propionylamino-2H-pyridin-1-yl)-propionylamino]-pentanoic acid]	> 200,000 M^−1s^−1	> 50,000 M^−1s^−1	> 50,000 M^−1s^−1
CCS(=O)(=O)Nc1cccn([C@H](C(=O)N[C@@H](CC(=O)O)C(=O)COc2c(F)c(F)cc(F)c2F)C(C)C)c1=O [Compound 24, (S,S)-3-[2-(3-Ethanesulfonylamino-2-oxo-2H-pyridin-1-yl)-3-methyl-butyrylamino]-4-oxo-5-(2,3,5,6-tetrafluoro-phenoxy)-pentanoic acid]	> 200,000 M^−1s^−1	> 50,000 M^−1s^−1	> 50,000 M^−1s^−1
CC[C@@H](C(=O)N[C@@H](CC(=O)O)C(=O)COc1c(F)c(F)cc(F)c1F)n1cccc(NC(=O)N(CC)CC)c1=O [Compound 15, (S,S)-3-{2-[3-(3,3-Diethyl-ureido)-2-oxo-2H-pyridin-1-yl]-butyrylamino}-4-oxo-5-(2,3,5,6-tetrafluoro-phenoxy)-pentanoic acid]	> 200,000 M^−1s^−1	> 50,000 M^−1s^−1	> 50,000 M^−1s^−1
CCC[C@@H](C(=O)NC(CC(=O)O)C(=O)CF)n1cccc(NC(=O)CC)c1=O (stereo partly drawn) [Compound 35, (S)-5-Fluoro-4-oxo-3-[2-(2-oxo-3-propionylamino-2H-pyridin-1-yl)-pentanoylamino]-pentanoic acid]	> 200,000 M^−1s^−1	> 50,000 M^−1s^−1	> 50,000 M^−1s^−1
CC[C@@H](C(=O)N[C@@H](CC(=O)O)C(=O)COc1c(F)c(F)cc(F)c1F)n1cccc(Nc2nccs2)c1=O [Compound 38, (S,S)-4-Oxo-3-{2-[2-oxo-3-(thiazol-2-ylamino)-2H-pyridin-1-yl]-butyrylamino}-5-(2,3,5,6-tetrafluoro-phenoxy)-pentanoic acid]	> 200,000 M^−1s^−1	> 50,000 M^−1s^−1	> 50,000 M^−1s^−1
CC[C@@H](C(=O)N[C@@H](CC(=O)O)C(=O)COc1c(F)c(F)cc(F)c1F)n1cccc(NC(=O)N2CCCC2)c1=O [Compound 16, (S,S)-4-Oxo-3-(2-{2-oxo-3-[(pyrrolidine-1-carbonyl)-amino]-2H-pyridin-1-yl}-butyrylamino)-5-(2,3,5,6-tetrafluoro-phenoxy)-pentanoic acid]	> 200,000 M^−1s^−1	> 50,000 M^−1s^−1	> 50,000 M^−1s^−1
CC[C@@H](C(=O)N[C@@H](CC(=O)O)C(=O)COc1c(F)c(F)cc(F)c1F)n1cccc(NC(=O)C2CC2)c1=O [Compound 4, (S,S)-3-{2-[3-(Cyclopropanecarbonyl-amino)-2-oxo-2H-pyridin-1-yl]-butyrylamino}-4-oxo-5-(2,3,5,6-tetrafluoro-phenoxy)-pentanoic acid]	> 200,000 M^−1s^−1	> 50,000 M^−1s^−1	> 50,000 M^−1s^−1
CC[C@@H](C(=O)N[C@@H](CC(=O)O)C(=O)COc1c(F)c(F)cc(F)c1F)n1cccc(NC(=O)c2ccccc2)c1=O [Compound 11, (S,S)-3-[2-(3-Benzoylamino-2-oxo-2H-pyridin-1-yl)-butyrylamino]-4-oxo-5-(2,3,5,6-tetrafluoro-phenoxy)-pentanoic acid]	> 200,000 M^−1s^−1	> 50,000 M^−1s^−1	> 50,000 M^−1s^−1

The remaining lines, values ahead:

kinact, second order rate constant of caspase-1 inactivation [1]	kinact, second order rate constant of caspase-3 inactivation [2]	kinact, second order rate constant of caspase-8 inactivation [3]	Compound
> 200,000 M^−1s^−1	> 50,000 M^−1s^−1	> 50,000 M^−1s^−1	CCC(=O)Nc1cccn([C@@H](CC)C(=O)N[C@@H](CC(=O)O)C(=O)COc2c(F)c(F)cc(F)c2F)c1=O [Compound 2, (S,S)-4-Oxo-3-[2-(2-oxo-3-propionylamino-2H-pyridin-1-yl)-butyrylamino]-5-(2,3,5,6-tetrafluoro-phenoxy)-pentanoic acid]
> 200,000 M^−1s^−1	> 50,000 M^−1s^−1	> 50,000 M^−1s^−1	CC[C@@H](C(=O)NC(CC(=O)O)C(=O)CF)n1cccc(NC(=O)c2ccccc2)c1=O (stereo partly drawn) [Compound 30, (S)-3-[2-(3-Benzoylamino-2-oxo-2H-pyridin-1-yl)-butyrylamino]-5-fluoro-4-oxo-pentanoic acid]
> 200,000 M^−1s^−1	> 50,000 M^−1s^−1	> 50,000 M^−1s^−1	CC[C@@H](C(=O)N[C@@H](CC(=O)O)C(=O)COc1c(F)c(F)cc(F)c1F)n1cccc(NC(=O)c2ccsn2)c1=O [Compound 10, (S,S)-3-(2-{3-[(Isothiazole-3-carbonyl)-amino]-2-oxo-2H-pyridin-1-yl}-butyrylamino)-4-oxo-5-(2,3,5,6-tetrafluorophenoxy)-pentanoic acid]
> 200,000 M^−1s^−1	> 50,000 M^−1s^−1	> 50,000 M^−1s^−1	CC[C@@H](C(=O)N[C@@H](CC(=O)O)C(=O)COc1c(F)c(F)cc(F)c1F)n1cccc(NC(=O)c2ccoc2)c1=O [Compound 8, (S,S)-3-(2-{3-[(Furan-3-carbonyl)-amino]-2-oxo-2H-pyridin-1-yl}-butyrylamino)-4-oxo-5-(2,3,5,6-tetrafluoro-phenoxy)-pentanoic acid]
> 200,000 M^−1s^−1	> 50,000 M^−1s^−1	> 50,000 M^−1s^−1	CC[C@@H](C(=O)N[C@@H](CC(=O)O)C(=O)COc1c(F)c(F)cc(F)c1F)n1cc(C(F)(F)F)cc(NS(=O)(=O)CC)c1=O [Compound 22, (S,S)-3-[2-(3-Ethanesulfonylamino-2-oxo-5-trifluoromethyl-2H-pyridin-1-yl)-butyrylamino]-4-oxo-5-(2,3,5,6-tetrafluoro-phenoxy)-pentanoic acid]
> 200,000 M^−1s^−1	> 50,000 M^−1s^−1	> 50,000 M^−1s^−1	CC[C@@H](C(=O)N[C@@H](CC(=O)O)C(=O)COc1c(F)c(F)cc(F)c1F)n1cccc(NC(=O)COC)c1=O [Compound 6, (S,S)-3-{2-[3-(2-Methoxy-acetylamino)-2-oxo-2H-pyridin-1-yl]-butyrylamino}-4-oxo-5-(2,3,5,6-tetrafluoro-phenoxy)-pentanoic acid]
> 200,000 M^−1s^−1	> 50,000 M^−1s^−1	> 50,000 M^−1s^−1	CCCC(=O)Nc1cccn([C@@H](CC)C(=O)N[C@@H](CC(=O)O)C(=O)COc2c(F)c(F)cc(F)c2F)c1=O [Compound 3, (S,S)-3-[2-(3-Butyrylamino-2-oxo-2H-pyridin-1-yl)-butyrylamino]-4-oxo-5-(2,3,5,6-tetrafluoro-phenoxy)-pentanoic acid]
> 200,000 M^−1s^−1	> 50,000 M^−1s^−1	> 50,000 M^−1s^−1	CC[C@@H](C(=O)N[C@@H](CC(=O)O)C(=O)COc1c(F)c(F)cc(F)c1F)n1cccc(NC(=O)Cc2ccccc2)c1=O [Compound 12, (S,S)-4-Oxo-3-[2-(2-oxo-3-phenylacetylamino-2H-pyridin-1-yl)-butyrylamino]-5-(2,3,5,6-tetrafluoro-phenoxy)-pentanoic acid]
> 200,000 M^−1s^−1	> 50,000 M^−1s^−1	> 50,000 M^−1s^−1	CC[C@@H](C(=O)NC(CC(=O)O)C(=O)CF)n1cccc(NC(=O)Cc2ccccc2)c1=O (stereo partly drawn) [Compound 33, (S)-5-Fluoro-4-oxo-3-[2-(2-oxo-3-phenylacetylamino-2H-pyridin-1-yl)-butyrylamino]-pentanoic acid]
